The assay concerns KB-3 cells. Briefly: Growth inhibitory potential (sulforhodamine B cell survival assay): KB-3. It is filed as cell-based. Particulars: Homo sapiens, KB3, 72 h, read-out: IC50 KB-3. The procedure: One part of a natural product drug discovery program involves monitoring the potential of plant extracts to reverse multiple drug resistance. […] To investigate the potential of plant extracts or compounds to reverse multidrug-resistance, KB-V1 cells are treated with different concentrations of plant extracts or compounds in the presence (1 μg/ml) or absence of vinblastine. […] Therefore, KB-3 cells serve as a control to differentiate between nonspecific cytotoxicity and selective MDR antagonism.
Cytotoxic potential. The cytotoxic potential of test substances with KB-3, KB-V1 and KB-8-5 cells was determined as described previously (24). Briefly, various concentrations of test compounds (dissolved in 10 μl of 10% DMSO) were transferred to 96-well plates, and 190 μl aliquots of cell suspensions (5×10^4 cells/ml) were added to each well. […] Finally, 200 μl of 10 mM Tris base were added to each well and the optical densities were determined at 515 nm utilizing an ELISA plate reader. […] Optical density values obtained with the zero-day control were subtracted, and cell survival, relative to control (solvent-treated) cultures, was calculated. The cytotoxic potential of the compounds with CEM and CEM/VLB100 cells was determined as described by Beck et al. (30). […] At 48 hours, the cell number was determined using a Coulter Counter, with a channelizer to distinguish cells from debris.

For the molecule `COc1cc2c(c(OC)c1OC)-c1ccc(OC)c(=O)cc1[C@@H](NC(C)=O)CC2` [colchicine, reference compound], the IC50 is 50 nM.
